Source: paper PMC7910558
These are yes or no findings as the source states them, for the method shown. Binding seen in cells or lysates may run through a third protein. Some entries that bind do so weakly or less than the wild type.

Protein sequences, listed by entry. Tags and fused reporters are not part of them.
UniProt P14618: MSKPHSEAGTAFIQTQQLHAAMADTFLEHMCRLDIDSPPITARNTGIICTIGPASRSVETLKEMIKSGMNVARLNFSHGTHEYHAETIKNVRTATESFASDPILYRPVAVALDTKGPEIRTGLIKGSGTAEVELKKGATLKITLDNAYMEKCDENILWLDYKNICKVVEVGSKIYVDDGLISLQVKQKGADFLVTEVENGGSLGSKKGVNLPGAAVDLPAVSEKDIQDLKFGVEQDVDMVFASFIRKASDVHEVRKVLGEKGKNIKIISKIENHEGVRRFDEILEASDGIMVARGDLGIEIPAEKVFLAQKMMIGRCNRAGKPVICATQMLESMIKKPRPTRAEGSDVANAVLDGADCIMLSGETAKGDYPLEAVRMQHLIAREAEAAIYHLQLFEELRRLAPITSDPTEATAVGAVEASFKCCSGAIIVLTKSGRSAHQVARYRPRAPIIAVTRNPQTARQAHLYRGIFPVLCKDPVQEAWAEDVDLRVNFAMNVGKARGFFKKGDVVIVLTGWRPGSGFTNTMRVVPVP
UniProt Q16665: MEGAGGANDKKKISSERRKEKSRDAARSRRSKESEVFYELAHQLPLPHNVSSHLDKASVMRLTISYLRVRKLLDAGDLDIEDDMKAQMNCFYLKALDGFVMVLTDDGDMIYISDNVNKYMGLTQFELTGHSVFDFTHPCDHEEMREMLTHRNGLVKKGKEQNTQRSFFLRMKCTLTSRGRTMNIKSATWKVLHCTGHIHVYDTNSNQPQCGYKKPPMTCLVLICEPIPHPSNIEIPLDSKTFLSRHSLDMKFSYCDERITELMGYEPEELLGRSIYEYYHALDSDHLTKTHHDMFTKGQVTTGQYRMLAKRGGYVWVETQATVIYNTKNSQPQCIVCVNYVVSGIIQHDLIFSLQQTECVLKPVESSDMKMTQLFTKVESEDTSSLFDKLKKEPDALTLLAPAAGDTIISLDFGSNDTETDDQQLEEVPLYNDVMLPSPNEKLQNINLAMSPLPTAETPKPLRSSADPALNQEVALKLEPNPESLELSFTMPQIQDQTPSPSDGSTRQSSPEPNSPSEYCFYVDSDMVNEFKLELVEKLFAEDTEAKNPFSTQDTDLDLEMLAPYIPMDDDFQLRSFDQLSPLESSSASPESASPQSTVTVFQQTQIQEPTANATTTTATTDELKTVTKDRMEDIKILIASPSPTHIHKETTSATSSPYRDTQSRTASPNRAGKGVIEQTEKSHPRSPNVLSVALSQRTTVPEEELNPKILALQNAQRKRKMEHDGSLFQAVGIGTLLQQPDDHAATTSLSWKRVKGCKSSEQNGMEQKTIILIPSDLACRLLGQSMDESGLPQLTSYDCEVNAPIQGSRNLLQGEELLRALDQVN
UniProt Q09472: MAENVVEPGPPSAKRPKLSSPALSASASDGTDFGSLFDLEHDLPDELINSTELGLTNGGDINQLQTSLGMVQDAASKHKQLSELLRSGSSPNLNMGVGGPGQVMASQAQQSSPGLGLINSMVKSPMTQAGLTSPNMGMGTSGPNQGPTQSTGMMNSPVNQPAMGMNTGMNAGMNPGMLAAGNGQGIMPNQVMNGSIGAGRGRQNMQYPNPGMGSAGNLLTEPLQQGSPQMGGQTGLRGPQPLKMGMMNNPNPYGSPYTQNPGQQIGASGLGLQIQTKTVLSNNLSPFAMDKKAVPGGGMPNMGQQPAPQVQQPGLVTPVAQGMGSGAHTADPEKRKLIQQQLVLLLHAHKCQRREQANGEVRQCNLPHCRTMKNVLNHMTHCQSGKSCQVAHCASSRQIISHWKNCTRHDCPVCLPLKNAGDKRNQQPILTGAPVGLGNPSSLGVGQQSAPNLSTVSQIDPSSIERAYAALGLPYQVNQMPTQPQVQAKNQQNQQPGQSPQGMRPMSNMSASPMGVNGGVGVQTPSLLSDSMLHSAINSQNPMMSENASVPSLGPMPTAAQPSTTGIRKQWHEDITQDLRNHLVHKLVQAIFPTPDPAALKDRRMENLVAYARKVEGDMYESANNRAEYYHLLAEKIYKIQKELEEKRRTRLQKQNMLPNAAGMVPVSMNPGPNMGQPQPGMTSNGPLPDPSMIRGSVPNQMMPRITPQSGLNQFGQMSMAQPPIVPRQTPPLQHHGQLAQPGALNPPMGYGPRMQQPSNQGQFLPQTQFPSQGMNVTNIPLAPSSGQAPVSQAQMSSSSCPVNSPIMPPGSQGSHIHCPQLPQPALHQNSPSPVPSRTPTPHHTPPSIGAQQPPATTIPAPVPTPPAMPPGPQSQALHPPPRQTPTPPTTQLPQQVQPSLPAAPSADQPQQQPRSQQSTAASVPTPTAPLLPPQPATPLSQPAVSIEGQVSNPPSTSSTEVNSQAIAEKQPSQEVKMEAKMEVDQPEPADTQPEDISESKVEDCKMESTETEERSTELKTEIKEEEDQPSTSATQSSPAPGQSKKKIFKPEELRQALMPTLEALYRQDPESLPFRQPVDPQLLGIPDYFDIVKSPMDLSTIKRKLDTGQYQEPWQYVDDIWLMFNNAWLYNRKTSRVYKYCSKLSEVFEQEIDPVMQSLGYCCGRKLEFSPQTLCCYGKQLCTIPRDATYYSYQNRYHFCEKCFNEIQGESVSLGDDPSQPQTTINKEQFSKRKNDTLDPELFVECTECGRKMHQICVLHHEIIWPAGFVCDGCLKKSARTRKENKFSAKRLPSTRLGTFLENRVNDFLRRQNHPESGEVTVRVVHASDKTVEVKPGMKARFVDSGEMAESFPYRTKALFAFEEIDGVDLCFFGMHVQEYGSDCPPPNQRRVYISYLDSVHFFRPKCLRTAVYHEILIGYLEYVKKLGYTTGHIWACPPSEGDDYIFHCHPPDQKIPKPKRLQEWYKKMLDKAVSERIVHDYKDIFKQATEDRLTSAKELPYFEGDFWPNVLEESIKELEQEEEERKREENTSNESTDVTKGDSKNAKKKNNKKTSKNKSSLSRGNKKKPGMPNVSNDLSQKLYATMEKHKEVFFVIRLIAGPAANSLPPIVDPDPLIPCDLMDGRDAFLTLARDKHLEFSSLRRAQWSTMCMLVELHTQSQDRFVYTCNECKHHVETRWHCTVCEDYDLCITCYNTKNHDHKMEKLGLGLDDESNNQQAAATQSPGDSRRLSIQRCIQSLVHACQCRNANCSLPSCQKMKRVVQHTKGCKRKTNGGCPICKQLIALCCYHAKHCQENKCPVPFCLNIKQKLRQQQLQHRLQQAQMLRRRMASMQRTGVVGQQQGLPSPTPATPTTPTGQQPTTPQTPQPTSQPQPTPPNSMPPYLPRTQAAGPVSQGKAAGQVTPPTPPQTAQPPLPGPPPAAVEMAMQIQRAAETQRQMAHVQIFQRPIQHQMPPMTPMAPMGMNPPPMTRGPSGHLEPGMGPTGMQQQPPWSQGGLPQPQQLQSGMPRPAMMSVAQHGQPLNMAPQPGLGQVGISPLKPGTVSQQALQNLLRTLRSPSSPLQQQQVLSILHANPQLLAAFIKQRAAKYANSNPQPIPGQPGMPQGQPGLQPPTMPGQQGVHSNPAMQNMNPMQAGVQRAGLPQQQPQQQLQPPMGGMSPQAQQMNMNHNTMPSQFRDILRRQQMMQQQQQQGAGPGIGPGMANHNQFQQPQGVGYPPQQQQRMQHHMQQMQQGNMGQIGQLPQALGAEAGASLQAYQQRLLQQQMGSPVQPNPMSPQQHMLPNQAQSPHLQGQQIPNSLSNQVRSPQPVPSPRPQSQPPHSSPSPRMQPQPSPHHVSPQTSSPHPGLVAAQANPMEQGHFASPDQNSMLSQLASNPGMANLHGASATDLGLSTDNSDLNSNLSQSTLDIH

Assays:
[1] = molecular target: pyruvate kinase isozymes M2 (PKM2) (human (endogenous in MDA-MB-231)) (UniProt P14618); experiment: co-IP; MDA-MB-231 cells transiently transfected with control or HIFAL-LNAs for 48 h, then cultured under hypoxia; PKM2 with HIF-1α and with p300; which protein was precipitated is not told
[2] = molecular target: HIF-1α (human (endogenous in MDA-MB-231)) (UniProt Q16665); experiment: as above
[3] = molecular target: HIF-1α (human (endogenous in MDA-MB-231)) (UniProt Q16665); experiment: co-IP; HIF-1α co-immunoprecipitation at indicated time points after hypoxia in HIFAL WT cells, normalized to the corresponding HIF-1α protein levels

| binding [1] | binding [2] | binding [3] | Substance |
| --- | --- | --- | --- |
| binds |  |  | p300 (from UniProt Q09472 1-2414) |
|  | binds | binds | pyruvate kinase isozymes M2 (PKM2) (from UniProt P14618 1-531) |
